Measurements reported in publication PMC11733299.
Results are given in words; binding and its absence hold for the method and conditions named. Some entries that bind do so weakly or less than the wild type.

Assays:
Experiment in all cases: two-hybrid; mating-based split-ubiquitin system (mbSUS); CNGC (full length or TM domains) in pMetYCgate (Cub), CPK1 in pNXgate32-3HA (Nub); yeast THY.AP4; growth on SD/-Leu-Trp-His-Ade
[1] = molecular target: T1, CNGC5-M (aa103-412) in pMetYCgate (Cub) (Arabidopsis thaliana) (UniProt Q8RWS9)
T1 sequence: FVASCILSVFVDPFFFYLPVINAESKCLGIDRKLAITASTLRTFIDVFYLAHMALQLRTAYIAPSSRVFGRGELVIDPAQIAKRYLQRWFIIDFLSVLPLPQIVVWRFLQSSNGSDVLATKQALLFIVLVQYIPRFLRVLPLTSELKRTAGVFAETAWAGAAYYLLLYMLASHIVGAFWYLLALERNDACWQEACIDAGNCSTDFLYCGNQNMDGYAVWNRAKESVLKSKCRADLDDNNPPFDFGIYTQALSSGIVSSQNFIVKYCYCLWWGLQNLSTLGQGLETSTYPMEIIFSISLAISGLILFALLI

[2] = molecular target: T2, full-length CNGC5 in pMetYCgate (Cub) (Arabidopsis thaliana) (UniProt Q8RWS9)
T2 sequence: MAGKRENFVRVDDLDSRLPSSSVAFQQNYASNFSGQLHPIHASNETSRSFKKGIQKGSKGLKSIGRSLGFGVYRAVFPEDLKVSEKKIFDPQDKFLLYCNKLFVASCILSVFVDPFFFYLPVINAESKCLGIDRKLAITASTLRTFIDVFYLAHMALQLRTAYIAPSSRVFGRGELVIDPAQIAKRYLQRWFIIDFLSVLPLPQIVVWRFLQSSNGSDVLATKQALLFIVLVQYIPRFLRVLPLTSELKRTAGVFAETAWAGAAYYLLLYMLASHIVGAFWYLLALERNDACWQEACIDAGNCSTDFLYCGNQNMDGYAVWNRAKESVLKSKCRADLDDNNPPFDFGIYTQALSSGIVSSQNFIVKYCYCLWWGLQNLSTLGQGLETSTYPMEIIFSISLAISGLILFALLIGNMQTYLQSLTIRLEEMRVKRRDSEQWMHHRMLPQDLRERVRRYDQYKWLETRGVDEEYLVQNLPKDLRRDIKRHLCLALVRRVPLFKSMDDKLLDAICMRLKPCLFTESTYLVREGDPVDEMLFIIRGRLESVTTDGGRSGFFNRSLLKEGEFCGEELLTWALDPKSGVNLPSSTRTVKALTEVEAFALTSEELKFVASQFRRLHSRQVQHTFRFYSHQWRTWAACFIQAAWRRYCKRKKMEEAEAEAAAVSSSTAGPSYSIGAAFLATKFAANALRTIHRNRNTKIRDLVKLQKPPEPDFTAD

[3] = molecular target: T3, full-length CNGC6 in pMetYCgate (Cub) (Arabidopsis thaliana) (UniProt O82226)
T3 sequence: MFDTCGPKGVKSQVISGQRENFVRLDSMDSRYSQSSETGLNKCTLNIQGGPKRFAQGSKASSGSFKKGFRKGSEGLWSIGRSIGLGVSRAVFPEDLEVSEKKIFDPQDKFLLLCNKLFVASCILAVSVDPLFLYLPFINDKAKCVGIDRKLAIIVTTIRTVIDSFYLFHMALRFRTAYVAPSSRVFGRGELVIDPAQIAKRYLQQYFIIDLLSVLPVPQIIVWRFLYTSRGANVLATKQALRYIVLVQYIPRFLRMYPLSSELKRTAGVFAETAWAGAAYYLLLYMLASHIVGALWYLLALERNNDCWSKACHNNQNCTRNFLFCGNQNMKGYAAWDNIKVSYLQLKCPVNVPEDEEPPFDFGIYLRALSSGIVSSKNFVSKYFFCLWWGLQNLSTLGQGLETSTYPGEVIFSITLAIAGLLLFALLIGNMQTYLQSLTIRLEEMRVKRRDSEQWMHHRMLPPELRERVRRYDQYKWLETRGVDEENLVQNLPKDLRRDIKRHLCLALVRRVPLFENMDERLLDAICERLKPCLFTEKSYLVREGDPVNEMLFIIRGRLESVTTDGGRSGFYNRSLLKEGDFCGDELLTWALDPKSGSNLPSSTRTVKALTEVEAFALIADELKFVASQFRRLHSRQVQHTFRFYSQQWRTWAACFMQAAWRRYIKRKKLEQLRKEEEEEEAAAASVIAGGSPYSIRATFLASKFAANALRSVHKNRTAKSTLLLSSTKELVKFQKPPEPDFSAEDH

B1: Nub-CPK1 (calcium dependent protein kinase 1 in pNXgate32-3HA) (enzyme, UniProt Q06850 1-610)
chain: MGNTCVGPSRNGFLQSVSAAMWRPRDGDDSASMSNGDIASEAVSGELRSRLSDEVQNKPPEQVTMPKPGTDVETKDREIRTESKPETLEEISLESKPETKQETKSETKPESKPDPPAKPKKPKHMKRVSSAGLRTESVLQRKTENFKEFYSLGRKLGQGQFGTTFLCVEKTTGKEFACKSIAKRKLLTDEDVEDVRREIQIMHHLAGHPNVISIKGAYEDVVAVHLVMECCAGGELFDRIIQRGHYTERKAAELTRTIVGVVEACHSLGVMHRDLKPENFLFVSKHEDSLLKTIDFGLSMFFKPDDVFTDVVGSPYYVAPEVLRKRYGPEADVWSAGVIVYILLSGVPPFWAETEQGIFEQVLHGDLDFSSDPWPSISESAKDLVRKMLVRDPKKRLTAHQVLCHPWVQVDGVAPDKPLDSAVLSRMKQFSAMNKFKKMALRVIAESLSEEEIAGLKEMFNMIDADKSGQITFEELKAGLKRVGANLKESEILDLMQAADVDNSGTIDYKEFIAATLHLNKIEREDHLFAAFTYFDKDGSGYITPDELQQACEEFGVEDVRIEELMRDVDQDNDGRIDYNEFVAMMQKGSITGGPVKMGLEKSFSIALKL
B1 was tested, and the binding [1] was “no binding”, the binding [2] was “binds” and the binding [3] was “binds”.
